According to publication PMC12866682 (2025):
Where a chain is given by its changes, count along the chain named. Where two headings read alike, the source gives them in different places. Results are given in words; binding and its absence hold for the method and conditions named. Binding seen in cells or lysates may run through a third protein. Some entries that bind do so weakly or less than the wild type. Where a sequence is shown, tags or fusion partners need not be part of it. Blank lines part the entries; values can stand above or below the molecule they belong to.

Protein sequences, listed by entry. Tags and fused reporters are not part of them. Lines headed by an entry give the natural chain unless they say otherwise; changes in a name come on top.
UniProt P05164: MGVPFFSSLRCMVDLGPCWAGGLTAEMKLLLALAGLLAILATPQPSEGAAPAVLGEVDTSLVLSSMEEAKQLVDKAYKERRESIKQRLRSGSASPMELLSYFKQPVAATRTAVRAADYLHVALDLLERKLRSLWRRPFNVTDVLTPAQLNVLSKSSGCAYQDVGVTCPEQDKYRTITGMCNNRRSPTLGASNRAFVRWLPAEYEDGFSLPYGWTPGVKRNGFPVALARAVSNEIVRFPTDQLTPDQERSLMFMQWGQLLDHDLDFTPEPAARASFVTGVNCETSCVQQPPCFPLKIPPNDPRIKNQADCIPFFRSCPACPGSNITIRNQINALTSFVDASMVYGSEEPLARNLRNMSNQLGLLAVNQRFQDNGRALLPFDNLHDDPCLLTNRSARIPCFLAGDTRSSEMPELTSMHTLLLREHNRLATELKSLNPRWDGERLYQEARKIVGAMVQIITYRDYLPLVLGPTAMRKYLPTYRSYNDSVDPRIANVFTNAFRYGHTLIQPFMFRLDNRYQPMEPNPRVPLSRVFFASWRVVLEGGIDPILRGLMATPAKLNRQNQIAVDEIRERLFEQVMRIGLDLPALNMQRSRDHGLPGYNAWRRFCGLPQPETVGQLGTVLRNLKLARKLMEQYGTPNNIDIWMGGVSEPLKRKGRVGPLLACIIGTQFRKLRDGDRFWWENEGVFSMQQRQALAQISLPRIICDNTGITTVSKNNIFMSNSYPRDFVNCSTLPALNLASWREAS

Assays:
Assay in all cases: co-IP; HEK293T cells transfected with HA-tagged TREM2 and FLAG-tagged plasmids for 24 h; lysates immunoprecipitated with anti-HA beads (or anti-FLAG beads), Western blotting for HA and FLAG
[1] = molecular target: T1, HA-tagged TREM2, WT (full length, FL) (UniProt Q9NZC2)
T1 sequence: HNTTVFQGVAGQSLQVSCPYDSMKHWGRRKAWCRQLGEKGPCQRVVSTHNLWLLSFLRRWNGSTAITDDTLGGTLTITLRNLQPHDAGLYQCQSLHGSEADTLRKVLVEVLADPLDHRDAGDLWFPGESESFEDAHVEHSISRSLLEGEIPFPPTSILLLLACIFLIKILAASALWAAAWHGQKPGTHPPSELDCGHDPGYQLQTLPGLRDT

[2] = molecular target: T2, HA-tagged TREM2 T96K (UniProt Q9NZC2)
T2 sequence: T1 sequence with T78K

[3] = molecular target: T1, HA-tagged TREM2, WT (full length, FL); remark: listed apart in the source

- binding [1]: binds
Molecule: FLAG-tagged heavy chain (H) of MPO (from UniProt P05164 279-745) (domain or fragment)

- binding [1]: binds
- binding [2]: binds
Molecule: FLAG-tagged MPO, full length (FL) (from UniProt P05164 49-745) (ligand)

- binding [3]: no binding
B1: FLAG-tagged AZU1 (protein, UniProt P20160 27-251)
chain: IVGGRKARPRQFPFLASIQNQGRHFCGGALIHARFVMTAASCFQSQNPGVSTVVLGAYDLRRRERQSRQTFSISSMSENGYDPQQNLNDLMLLQLDREANLTSSVTILPLPLQNATVEAGTRCQVAGWGSQRSGGRLSRFPRFVNVTVTPEDQCRPNNVCTGVLTRRGGICNGDGGTPLVCEGLAHGVASFSLGPCGRGPDFFTRVALFRDWIDGVLNNPGPGPA
